Experimental data taken from PubChem BioAssay AID504834 (National Center for Advancing Translational Sciences (NCATS), 2011).
The campaign covered roughly 320,000 compounds. About 22,000 (6.9%) were called active. This list was built around the results that the source calls inconclusive (neither active nor inactive); the mix of calls is not that of the screen. Calls come from the whole dose curve; as a rule, active = well fitted inhibition curve with a large enough effect; inconclusive = small, poorly fitted or top-dose-only effect, or another doubt; inactive = no such curve, though single readings can be large or run the other way. Potencies beside an inconclusive call are fits to weak or partial responses and may not hold up.
% is set by controls: 0 for no effect and ±100 for the full control effect; potency is the fitted concentration of half-maximal effect.

Assay: Primary qHTS for delayed death inhibitors of the malarial parasite plastid, 96 hour incubation
Settings: P. falciparum luciferase reporter growth; series mostly up to 28.7 µM; activity change, negative = inhibition: at the top concentration
How it was run: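 Delayed-death screen, second-generation endpoint: infected erythrocytes, 2% hematocrit, 0.05% parasitemia final; 96 hours at 37 C, 5% CO2; luciferase detection reagent; luminescence decrease equals reduced growth.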
For `CSc1nsc(/C=C/Nc2ccc(C(=O)O)cc2)c1C#N`, the “activity change, negative = inhibition” value was inactive: -10.7%. For `Cc1nc2ccccc2nc1CSc1nncs1`, the Potency was inconclusive: 13.1 µM [inhibitor, single point]. In the case of `CN(c1ccccc1)c1ccc(/C=C/[N+](=O)[O-])cc1`, the “activity change, negative = inhibition” value is reported as inactive: 47.5%. For `COc1ccccc1NC(=O)CSc1nnc(COc2ccccc2OC)n1C`, the “activity change, negative = inhibition” value was inactive: -3.37%. For `COC(=O)c1ccc2c(=O)n(CCN3CCOCC3)c(SCC(=O)Nc3ccc(C)cc3)nc2c1`, the Potency was active: 11.7 µM. In the case of `COc1ccc(N2CCN(C(=O)CSc3nnc4n3C(C)(C)Cc3ccccc3-4)CC2)cc1`, the Potency is reported as inconclusive: 18.5 µM [inhibitor, single point]. For `COCCN1CCn2c(nc3cc(Nc4nnc(C)c5ccccc45)ccc32)C1`, the “activity change, negative = inhibition” value was inactive: -53.9%. With `CCNc1nc2[nH]c(=O)c3c(c2s1)OC(N)=C(C#N)C3c1ccc(C)cc1` (centres undefined) the Potency was inconclusive: 0.0037 µM [inhibitor, full curve, poor fit]. For `O=C(/C=C/c1ccc(O)c(O)c1)OC1C(O)CC(OC(=O)/C=C/c2ccc(O)c(O)c2)(C(=O)O)CC1O` (centres undefined), the “activity change, negative = inhibition” value was inactive: 23.6%. For `C/C(=N\NC(=O)c1c(Br)c(C)nn1C)c1ccc(NC(=O)C(C)Oc2ccc(Cl)cc2C)cc1` (centres undefined), the “activity change, negative = inhibition” value was inactive: 2.56%. In the case of `O=C(CNc1ccc(F)cc1Cl)Nc1cccc(S(=O)(=O)N2CCCCC2)c1`, the Potency is reported as inconclusive: 13.1 µM [inhibitor, partial curve, poor fit]. In the case of `COc1ccccc1C(=O)Nc1ccc2c(c1)nc(CCNC(=O)c1ccccc1)n2C`, the Potency is reported as inconclusive: 18.5 µM [inhibitor, single point]. In the case of `Cc1ccc(S(=O)(=O)N2CCC(=O)N(CCOC(=O)Nc3ccc(F)cc3)CC2)cc1`, the Potency is reported as inconclusive: 11.7 µM [inhibitor, single point]. In the case of `CCN(CC)c1ccc(C=Nc2ccc(N(C)C)cc2)c(O)c1`, the Potency is reported as inconclusive: 10.4 µM [inhibitor, single point]. In the case of `COc1ccc(-c2noc(CN3CCN(C(=O)c4cccs4)CC3)n2)c(OC)c1OC`, the Potency is reported as inconclusive: 20.8 µM [inhibitor, partial curve, poor fit]. In the case of `CCOC(=O)C1CCCN(S(=O)(=O)c2ccc3c4c(cccc24)C(=O)N3CC)C1` (centres undefined), the Potency is reported as inconclusive: 13.1 µM [inhibitor, partial curve, poor fit]. With `O=C(/C=C/c1ccccc1Cl)NCCc1ccc(F)cc1` the Potency was inconclusive: 18.5 µM [inhibitor, single point]. With `CCCCc1cc(=O)oc2c(CN3CCCC3)c(O)ccc12` the Potency was inconclusive: 6.57 µM [inhibitor, partial curve, poor fit]. For `O=C(CCSc1nnc(-c2ccco2)o1)Nc1ccc(Cl)cc1`, the “activity change, negative = inhibition” value was inactive: 27.5%. For `Cc1[nH]c(=O)[nH]c(=O)c1S(=O)(=O)N1CCCC(C(=O)N2CCN(c3cccc(C(F)(F)F)c3)CC2)C1` (centres undefined), the “activity change, negative = inhibition” value was inactive: 0.288%. In the case of `O=C(COC(=O)CCC(=O)c1cccs1)Nc1ncc(Cl)cc1Cl`, the “activity change, negative = inhibition” value is reported as inactive: -10.2%. With `CC1CCN(c2nnc(-c3cccs3)c3ccccc23)CC1` the Potency was inconclusive: 18.5 µM [inhibitor, single point]. In the case of `COc1cc(OC)cc(C(=O)Nc2ccc(C(=O)c3ccncc3)cc2)c1`, the Potency is reported as inconclusive: 1.04 µM [inhibitor, partial curve, poor fit]. In the case of `CCCc1cc(=O)n2[nH]cc(-c3ccc(Cl)cc3)c2n1`, the Potency is reported as inconclusive: 11.7 µM [inhibitor, single point]. With `CCOC(=O)c1c(C)oc2c(CN3CCN(C)CC3)c(Br)c(OC)c(O)c12` the Potency was inconclusive: 10.4 µM [inhibitor, single point]. For `CC(C)(CO)NC(=O)C(Cc1ccccc1)N1C(=O)c2ccccc2C1=O` (centres undefined), the Potency was inconclusive: 1.65 µM [inhibitor, full curve, poor fit]. With `COc1ccc(Cc2nnc(NC(=O)c3ccccc3)s2)cc1OC` the “activity change, negative = inhibition” value was inactive: 14.1%. For `COc1ccc(C2C(C(=O)N3CCN(c4ccccn4)CC3)CCC(=O)N2c2ccc(OC)cc2)cc1` (centres undefined), the “activity change, negative = inhibition” value was inactive: 9.21%. With `Cc1cc(-c2ccc(/C=N/n3cnnc3)o2)ccc1Cl` the Potency was inconclusive: 1.31 µM [inhibitor, partial curve, poor fit]. With `O=C(NC(=S)Nc1cccc2c(O)cccc12)c1ccco1` the Potency was inconclusive: 13.1 µM [inhibitor, single point]. For `Cc1cccc2c1NC(C)CC2C` (centres undefined), the Potency was inconclusive: 14.7 µM [inhibitor, single point]. For `COc1ccc(C(=O)Nc2cccnc2Sc2ccc(Cl)cc2)cc1`, the “activity change, negative = inhibition” value was inactive: 8.62%. For `CCc1ccc(OCC(=O)NN2Cc3ccccc3C2=N)cc1`, the Potency was inconclusive: 18.5 µM [inhibitor, single point]. For `COc1ccc(N2CCN(C(CNC(C)=O)c3ccco3)CC2)cc1` (centres undefined), the Potency was inconclusive: 1.31 µM [inhibitor, partial curve, poor fit]. For `COc1ccccc1C(=O)NC(C(=O)NCCc1nc2ccccc2[nH]1)=C(C)C`, the Potency was inconclusive: 10.4 µM [inhibitor, partial curve]. In the case of `CCCn1c(C2CCCN2c2nc(-c3ccc(C)cc3)cs2)nc2ccccc21` (centres undefined), the Potency is reported as inconclusive: 5.22 µM [inhibitor, partial curve, poor fit]. With `CC(C)Sc1nnc(NC(=O)c2ccco2)s1` the “activity change, negative = inhibition” value was inactive: 184%. For `COc1ccc2oc(=O)c(C(=O)N3CCN(C(=O)c4ccccc4)CC3)cc2c1`, the Potency was inconclusive: 11.7 µM [inhibitor, single point]. In the case of `COc1cc(OC)cc(C(=O)Oc2ccc(/C=N/Nc3nc4ccccc4s3)cc2OC)c1`, the “activity change, negative = inhibition” value is reported as inactive: -101%. In the case of `O=C(CC(=O)Nc1ccccc1F)Nc1ccccc1F`, the Potency is reported as inconclusive: 18.5 µM [inhibitor, single point]. With `Cc1oc(C(C)(C)C)cc1C(=O)Nc1ccc(N2CCOCC2)cc1` the Potency was inconclusive: 13.1 µM [inhibitor, partial curve]. With `O=C(CN1C(=O)NC2NC(=O)NC21)N/N=C/c1ccccc1O` (centres undefined) the Potency was inconclusive: 0.329 µM [inhibitor, full curve, poor fit]. With `COc1ccc(NC(=O)COCC(=O)Nc2ccc(C)cc2)cc1` the Potency was inconclusive: 18.5 µM [inhibitor, single point]. For `COc1ccc(OC)c(-c2nn(-c3ccccc3)cc2C(=O)NCC(c2cccs2)N2CCOCC2)c1` (centres undefined), the Potency was inconclusive: 10.4 µM [inhibitor, single point].
